# Experimental data taken from PubChem BioAssay AID504467 (National Center for Advancing Translational Sciences (NCATS), 2011).
# Among all 330,000 compounds or so, about 7,700 (2.3%) were called active. This list was built around the results that the source calls inconclusive (neither active nor inactive); the mix of calls is not that of the screen. The call rests on the fitted dose curve; in most records, active means well fitted inhibition curve with a large enough effect; inconclusive means small, poorly fitted or top-dose-only effect, or effect the other way; inactive means flat fitted curve, though single readings scatter. Where the call is inconclusive, the potency comes from a doubtful curve fit.
# Test: qHTS screen for small molecules that inhibit ELG1-dependent DNA repair in human embryonic kidney (HEK293T) cells expressing luciferase-tagged ELG1; further: nearly all actives have a fitted effect of over 55% in size
# Details: HEK293T ELG1-luciferase reporter, luminescence, 16 h, DNA damage induced by 5-fluorouridine; series mostly up to 46.1 µM
# Procedure, shortened: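 HEK293T cells expressing luciferase-tagged ELG1 (2,000/well) received 5-Fluorouridine plus compound or DMSO for 16 hr at 37 °C. Luciferase was read by ONE-Glo luminescence after 30 min at room temperature.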
# Potency means the concentration at half of the fitted maximal effect.
row,Structure (SMILES),Potency
1,COc1ccc(C(=O)Nc2ccc(Oc3nc(C)nc4sc(-c5ccccc5)cc34)cc2)cc1OC,"inconclusive: 3.66 µM [inhibitor, full curve]"
2,O=c1c2ccccc2[nH]c(=S)n1CCC1=CCCCC1,"inconclusive: 18.4 µM [activator, single point]"
3,CN1CCN(CCNC(=O)Nc2ccc(Cl)cc2)CC1,inactive
4,COc1ccc(N2CCc3c(C)nc4c(OC)cc(OC)cc4c32)cc1,"inconclusive: 29.1 µM [inhibitor, partial curve, poor fit]"
5,COc1ccccc1N1CCN(Cc2ccc(OC)c3ccccc23)CC1,"inconclusive: 29.1 µM [inhibitor, single point]"
6,O=C(/C=C/c1ccco1)N(c1ccccn1)c1ccccn1,inactive
7,NNC(=O)c1ccc(COc2ccc3c(c2)CCC3)o1,"inconclusive: 3.66 µM [activator, full curve]"
8,CC1CC(C)CN(S(=O)(=O)c2ccc(NC(=O)CCN3C(=O)C4CC=CCC4C3=O)cc2)C1 (centres undefined),"inconclusive: 25.9 µM [inhibitor, single point]"
9,Cc1ccccc1-c1cc(C(=O)NCc2ccc3c(c2)OCO3)n(CC2CC(c3cccnc3)=NO2)n1 (centres undefined),"inconclusive: 14.6 µM [inhibitor, partial curve]"
10,Cn1c(=O)n(CCc2ccccc2)c(=O)c2c1nc1n2CCCN1Cc1ccccc1,"inconclusive: 23.1 µM [inhibitor, single point]"
11,Cc1cccc(Nc2nnc(SC(C)C(=O)NC3CC3)s2)c1 (centres undefined),"inconclusive: 20.6 µM [inhibitor, partial curve, poor fit]"
12,COc1ccc2oc(C(=O)NCc3ccccc3CN3CCCC3)c(C)c2c1,inactive
13,COc1cccc(C(=O)OCC(=O)N2CCc3ccccc32)c1OC,"inconclusive: 16.4 µM [activator, partial curve, poor fit]"
14,O=C(NCc1ccccc1)c1ccc2c(=O)n(CCCN3CCCC3=O)c(=S)[nH]c2c1,"inconclusive: 29.1 µM [inhibitor, partial curve, poor fit]"
15,CC(C)(CNC(=O)CNC(=O)c1ccc(Cl)cc1Cl)N1CCOCC1,inactive
16,CCN(Cc1nc(-c2cccc(Cl)c2)no1)CC1CCCO1 (centres undefined),"inconclusive: 29.1 µM [activator, single point]"
17,CC(C)(C)c1ccc(CSc2nnc(-c3ccccn3)n2Cc2ccco2)cc1,"inconclusive: 20.6 µM [inhibitor, single point]"
18,Cc1sc(NC(=O)CS(=O)(=O)c2ccccc2)c(C(N)=O)c1C,"inconclusive: 25.9 µM [activator, single point]"
19,COc1ccc(CNC(=S)NCc2ccc(F)cc2)cc1,inactive
20,CCOc1ccccc1NC(=S)N1CCN(c2ccc(O)cc2)CC1,"inconclusive: 13 µM [inhibitor, partial curve]"
21,COc1cccc(NC(=O)Cc2nnc(SCC(=O)NC3CCCC3)n2C)c1,inactive
22,COc1cc(NC(=O)c2cccc(C)c2)c(OC)cc1NC(=O)CN1CCCCC1,"inconclusive: 23.1 µM [inhibitor, single point]"
23,COc1ccc(CCC(C)NCc2ccc(Cl)c(Cl)c2)cc1 (centres undefined),inactive

row,Structure (SMILES),Potency
1,Cc1onc(-c2ccccc2Cl)c1C(=O)Nc1nc2c(s1)CCCC2,"inconclusive: 8.2 µM [activator, partial curve, poor fit]"
2,CCN(CC)c1ccc(/C=C2/SC(=O)N(C(C)C)C2=O)o1,"inconclusive: 29.1 µM [inhibitor, single point]"
3,COc1cccc2sc(=NC(=O)CS(=O)(=O)c3ccc(F)cc3)n(C)c12,inactive
4,C#CCCOC(=O)N1C2=NC(C(=O)OC)=C(C(=O)OC)[C@@H]3N(C)c4ccccc4[C@]23C[C@H]1C(=O)OC,inactive
5,COc1ccc(CCNc2ccc(S(=O)(=O)N3CCCC3)cc2[N+](=O)[O-])cc1,"inconclusive: 16.4 µM [inhibitor, partial curve, poor fit]"
6,CCCCn1c(NC(=O)c2ccccc2)c(C#N)c2nc3ccccc3nc21,active: 8.2 µM
7,CC(C)(c1ccccc1)c1ccc(OCc2ccc(C(=O)O)o2)cc1,"inconclusive: 5.17 µM [activator, full curve]"
8,COc1ccc(OC)c(C2C(C#N)=C(N)Oc3c2c(C)nn3-c2cccc(Cl)c2)c1 (centres undefined),"inconclusive: 35.5 µM [inhibitor, single point]"
9,CC(=O)Nc1cccc(NC(=O)CSc2ncc(C(=O)Nc3ccc(F)cc3)c(=O)n2C)c1,"inconclusive: 20.6 µM [activator, single point]"
10,Cc1cc(C(=O)COc2ccccc2[N+](=O)[O-])c(C)n1-c1cccc(S(=O)(=O)N2CCOCC2)c1,"inconclusive: 23.1 µM [inhibitor, partial curve]"
11,Fc1cccc(Cl)c1Cn1nnc2c(N3CCC4(CC3)OCCO4)ncnc21,"inconclusive: 29.1 µM [inhibitor, single point]"
12,CCOC(=O)c1ccc(NC(=O)C2C3CCC(C3)C2C(=O)O)cc1 (centres undefined),"inconclusive: 20.6 µM [activator, single point]"
13,COc1ccc([C@H]2CC(=O)C=C(c3ccccc3Oc3ccccc3)C2)cc1,"inconclusive: 23.1 µM [inhibitor, single point]"
14,COc1ccc(NC(=O)CN(C)C(=O)CCc2ccccc2)cc1,inactive
15,COc1ccc(NC(=O)c2cc(N3C(=O)C4C5CCC(C5)C4C3=O)ccc2Cl)c(OC)c1 (centres undefined),"inconclusive: 0.82 µM [activator, single point]"
16,CCOC(=O)c1sc(NC(=O)c2cccs2)nc1C,"inconclusive: 2.59 µM [activator, full curve]"
17,O=C(NC1C(=O)NNC1c1ccccc1)c1ccc(F)cc1 (centres undefined),inactive
18,O=C(O)c1ccc(COc2ccccc2/C=C2/NC(=O)N(c3cccc(Cl)c3)C2=O)cc1,"inconclusive: 23.1 µM [activator, partial curve, poor fit]"
19,COc1ccc(-n2c(C)c(C)c3c(NCCCN(C)C)ncnc32)cc1,inactive
20,Cc1cccc(-n2c(=O)c(C#N)cc3c(=O)n4ccccc4nc32)c1,inactive
21,O=C(Nc1sc2c(c1C(=O)O)CCCCC2)c1ccco1,"inconclusive: 4.11 µM [activator, partial curve]"
22,CC(C)NC(=O)NC(=O)COc1c(F)c(F)cc(F)c1F,inactive
23,COc1ccc(CC(CC(=O)O)C(=O)Nc2ccc(OC)cc2)cc1 (centres undefined),inactive

# Laid out differently: 6 of the compounds above.
row | Structure (SMILES) | Potency
4 | COc1ccc(N2CCc3c(C)nc4c(OC)cc(OC)cc4c32)cc1 | inconclusive: 29.1 µM [inhibitor, partial curve, poor fit]
8 | CC1CC(C)CN(S(=O)(=O)c2ccc(NC(=O)CCN3C(=O)C4CC=CCC4C3=O)cc2)C1 (centres undefined) | inconclusive: 25.9 µM [inhibitor, single point]
19 | COc1ccc(CNC(=S)NCc2ccc(F)cc2)cc1 | inactive
5 | COc1ccc(CCNc2ccc(S(=O)(=O)N3CCCC3)cc2[N+](=O)[O-])cc1 | inconclusive: 16.4 µM [inhibitor, partial curve, poor fit]
6 | CCCCn1c(NC(=O)c2ccccc2)c(C#N)c2nc3ccccc3nc21 | active: 8.2 µM
14 | COc1ccc(NC(=O)CN(C)C(=O)CCc2ccccc2)cc1 | inactive

# Additional results.

row,Structure (SMILES),Potency
1,Cc1nnc(SCCn2c(N3CCN(Cc4ccccc4)CC3)nc3c2c(=O)[nH]c(=O)n3C)s1,"inconclusive: 20.6 µM [inhibitor, partial curve, poor fit]"
2,CO/N=C/c1ccc(OC)c(Oc2nc(OC)cc(OC)n2)c1,"inconclusive: 20.6 µM [inhibitor, single point]"
3,COCCCNC(=O)c1ccc(Cn2c(=O)c3ccccc3n(Cc3ccccc3C#N)c2=O)cc1,"inconclusive: 29.1 µM [inhibitor, single point]"
4,CCN1CCCC1CNC(=S)Nc1ccc(C(C)=O)cc1 (centres undefined),inactive
5,COc1ccc2c(c1)[nH]c1c(=O)n(Cc3ccco3)cnc12,"inconclusive: 5.17 µM [activator, single point]"
6,O=C(O)CSc1cc(C(F)(F)F)nc(-c2ccccn2)n1,inactive
7,Cc1ccc(S(=O)(=O)Cc2ccc(C(=O)NCc3ccc4c(c3)OCO4)o2)cc1,"inconclusive: 16.4 µM [inhibitor, single point]"
8,Cn1ncc2c(Nc3ccc(-c4ccccc4)cc3)ncnc21,"inconclusive: 2.06 µM [activator, partial curve]"
9,COc1cc(CNC(=O)CCCC/C=C/C(C)C)ccc1O,inactive
10,COCCNC(=O)Cn1cc(/C=N/NC(=O)c2ccc(Oc3ccc(O)cc3)cc2)c2ccccc21,"inconclusive: 23.1 µM [inhibitor, single point]"
11,O=C1Cc2cc(S(=O)(=O)Nc3ccccc3Cl)cc3c2N1CCC3,inactive
12,CCN1CCN(c2cc(-c3ccccc3)nc3cc(-c4cccc(F)c4)nn23)CC1,active: 23.1 µM
13,N#Cc1ccccc1NC(=O)c1ccc(-c2ccccc2Cl)o1,"inconclusive: 2.06 µM [activator, partial curve, poor fit]"
14,CN(c1ccc(OCC(=O)NCc2cccnc2)cc1)S(=O)(=O)c1ccc(Cl)cc1,inactive
15,Cc1ncc(CO)c(/C=N/Nc2cccc(Cl)n2)c1O,"inconclusive: 20.6 µM [inhibitor, single point]"
16,Cc1cccc(/C=C2\Sc3ccc(C(=O)NCC4CCCO4)cc3N(C)C2=O)c1 (centres undefined),"inconclusive: 16.4 µM [inhibitor, single point]"
17,CCC(=NCc1ccc(Cl)c(Cl)c1)c1nc(-c2ccco2)oc1O,"inconclusive: 29.1 µM [inhibitor, single point]"
18,O=C(NCc1ccc(Cl)cc1)C1CCN(S(=O)(=O)c2cccs2)CC1,inactive
19,CC(C)Cn1c(=O)[nH]c(=O)c2c(C(F)(F)F)cc(-c3ccccc3)nc21,"inconclusive: 23.1 µM [activator, single point]"
20,Cc1ccc(OCc2cc(C(=O)NCc3cc(F)ccc3C)no2)cn1,"inconclusive: 0.0231 µM [activator, partial curve, poor fit]"
21,O=C(CN(C(=O)CSc1nc2ccccc2o1)c1cccc(F)c1)NC1CCCCC1,"inconclusive: 29.1 µM [inhibitor, single point]"
22,O=C(NCCc1ccccc1F)C(=O)Nc1nccs1,"inconclusive: 25.9 µM [activator, single point]"
23,CNc1snc(C)c1C(=O)OC(C)C(=O)Nc1cccc(OC)c1 (centres undefined),"inconclusive: 29.1 µM [inhibitor, single point]"
